# Patent US20040116369A1, “Interferon regulatory factor-1/human estrogen receptor fusion protein and its use for treating carcinomas” (priority 2001, published 2004)
# At least one compound was matched to its structure with a doubt left.
# Legend:
# Hepa1-6 (wt) tumors = assay: Subcutaneous tumor growth in syngeneic C57L/J mice; type: in vivo; details: 1×10^7 wild-type Hepa1-6 cells; 1.5 mg E2 every 2 days i.p.
# Description: (§1) Tumor model. The Hepa1-6 tumor model in C57L/J mice (44) was chosen because they show reliable growth in the syngeneic host. Hepa1-6 cells are a derivative of the BW7756 mouse hepatoma that arose in a C57L mouse. MHC class I and II expression is identical between C57L and C57L/J mice and Hepa1-6 HCCs are characterized by AFP expression. […] After 6 days, tumors were visible and reached a size of about 2000 mm^3 after a mean time of 18 days. This tumor size was used as endpoint in the invention, and mice were subsequently sacrificed. Tumor incidence and volume were assessed every two days using calipers. Data are presented as mean volume±SE.
# (§2) Tumor protection studies. C57L/J mice were inoculated with 1×10^7 Hepa1-6 (groups 1 and 2) or HepaIRF-1hER (groups 3 and 4) cells into the right flank. Group 5 was not inoculated with any tumor. The different groups were treated as follows:
# (§3) The efficacy of IRF-1 activation as a therapeutic vaccine against tumors was examined. Mice were injected subcutaneosly with HepaIRF-1hER cells in the right flank and wt Hepa1-6 cells into the left flank. The animals were either treated with 1.5 mg E2 every two days or were left untreated. Activation of IRF-1-hER abolished tumor growth of HepaIRF-1hER cells on the right flank of the mice.
# HepaIRF-1hER tumors [1] = assay: Subcutaneous tumor growth in syngeneic C57L/J mice; type: in vivo; details: 1×10^7 HepaIRF-1hER cells; E2 i.p. from time of tumor inoculation
# Description: as §1, §2, §3
# Wild-type Hepa1-6 cells = assay: Cell growth (WST metabolic activity); type: cell-based, murine; details: nontransfected cell line; 1 μM β-estradiol, seven days
# [2] = test system: wild-type Hepa1-6 cell line; assay: Anchorage independent growth in soft agar; type: cell-based, murine; details: 1 μM β-estradiol, three weeks
# [3] = test system: IRF-1hER Hepa1-6 cell clones; assay: Anchorage independent growth in soft agar; type: cell-based, murine; details: activated IRF-1 (1 μM β-estradiol), three weeks
# HepaIRF-1hER cells = assay: FACS analysis of cell surface protein expression; type: cell-based, murine
# [4] = test system: Hepa1-6 cell clones expressing IRF-1hER; assay: Apoptosis (subdiploid DNA, Annexin staining); type: cell-based, murine; details: upon IRF-1 activation by β-estradiol
# NIH3T3TA/MR/IH cells = assay: Tumor growth of transformed cells in nude mice; type: in vivo, NMRI nude mice; details: 1.5 mg E2 every two days i.p.
# Description: Male 6-8-week old NMRI nude mice (Harlan Winkelmann, Borchen, Germany) were maintained in the SPF unit of the animal facility of German Research Center for Biotechnology. Mice were divided into two experimental groups, five mice for each group. 1×10^6 cells in 0.2 ml PBS NIH3T3TA/MR/IH cells were injected subcutaneously into the flanks of the mice. The groups were treated as follows: group 1: no treatment (n=5); group 2: 1.5 mg of E2 every two days i.p. (n=4). Tumor volumes were measured and recorded three times a week using calipers. Data are presented as mean value of tumor volume.
# [5] = test system: wild-type Hepa1-6 or HepaIRF-1hER tumor cells; assay: Protection against tumor rechallenge; type: in vivo, C57L/J mice; details: rechallenge 1×10^7 cells 28 days after first challenge, 11 days after stopping E2; no further E2
# Hepa1-6 target cells = assay: CTL 51Cr release assay after stimulation with irradiated Hepa1-6 cells; type: in vivo, C57L/J mice; details: mice challenged with HepaIRF-1hER cells and treated with E2
# HepaIRF-1hER tumors [6] = assay: Tumor growth with in vivo CD4 / CD8 T cell depletion; design: species or system C57L/J mice; details: E2 treated
# HepaIRF-1hER HCCs = assay: Tumor therapy of established tumors; type: in vivo, C57L/J mice; details: tumors about 2000 mm^3; 1.5 mg E2 i.p. every two days from day 19
# [7] = E2 treatment three to four days
structure (smiles),measurement,setting,value
"C[C@]12CC[C@@H]3c4ccc(O)cc4CC[C@H]3[C@@H]1CC[C@@H]2O [E2, β-estradiol]",effect on tumor development,Hepa1-6 (wt) tumors,no effect on tumor development
same,animals completely protected against tumor growth,HepaIRF-1hER tumors [1],six out of eight
same,alterations in cell growth,Wild-type Hepa1-6 cells,did not respond
same,colony formation in soft agar,[2],not influenced
same,ability of soft agar growth,[3],significantly decreased
same,CD80 and CD86 surface expression,HepaIRF-1hER cells; E2 treatment,remained negative
same,CD54 surface expression,HepaIRF-1hER cells; [7],remained unchanged
same,H-2K^b/H-2D^b (MHC class I) surface expression,HepaIRF-1hER cells; [7],strong upregulation
same,MHC class II surface expression,HepaIRF-1hER cells; [7],weakly upregulated
same,signs of apoptosis,[4],did not show any signs of apoptosis
same,"time at which tumor sizes up to 1500 mm^3 were reached, versus untreated animals",NIH3T3TA/MR/IH cells,four weeks later
same,protection against tumor rechallenge,[5],all mice in both groups were protected against tumor growth
same,CTL activity against Hepa1-6 target cells,Hepa1-6 target cells,strong CTL activity
same,"tumor growth after CD4 or CD8 T cell depletion, versus undepleted mice without E2",HepaIRF-1hER tumors [6]; CD4 or CD8 depletion,significantly delayed
same,tumor growth in undepleted mice,HepaIRF-1hER tumors [6]; no depletion,protected against tumor growth
same,growth of established tumors,HepaIRF-1hER HCCs,permanently arrested
